Data set [1] is described as follows: in vitro. Particulars: human.
Data set [2] can be described thus: in vitro. Particulars: African green monkey.
Data set [3] in a line: in vitro. Particulars: human. This is another data set of the same source.

Each structure is given as a SMILES string.

This note sets out measurements from paper PMC4613828 (PLoS Pathogens, 2015).

For the compound `CCON=Cc1ccc(OCCC(C)CCN2CCN(c3ccnc(N)c3)C2=O)cc1` (stereo not drawn) [NLD], the CC50 came out at 20 ± 1 µM in data set [1], 17 ± 2 µM in data set [2] and 5 ± 1.1 µM in data set [3].
